Data published in article PMC5009064.

The chains behind the UniProt entries cited, without tags or fusion partners.
UniProt Q96EP0: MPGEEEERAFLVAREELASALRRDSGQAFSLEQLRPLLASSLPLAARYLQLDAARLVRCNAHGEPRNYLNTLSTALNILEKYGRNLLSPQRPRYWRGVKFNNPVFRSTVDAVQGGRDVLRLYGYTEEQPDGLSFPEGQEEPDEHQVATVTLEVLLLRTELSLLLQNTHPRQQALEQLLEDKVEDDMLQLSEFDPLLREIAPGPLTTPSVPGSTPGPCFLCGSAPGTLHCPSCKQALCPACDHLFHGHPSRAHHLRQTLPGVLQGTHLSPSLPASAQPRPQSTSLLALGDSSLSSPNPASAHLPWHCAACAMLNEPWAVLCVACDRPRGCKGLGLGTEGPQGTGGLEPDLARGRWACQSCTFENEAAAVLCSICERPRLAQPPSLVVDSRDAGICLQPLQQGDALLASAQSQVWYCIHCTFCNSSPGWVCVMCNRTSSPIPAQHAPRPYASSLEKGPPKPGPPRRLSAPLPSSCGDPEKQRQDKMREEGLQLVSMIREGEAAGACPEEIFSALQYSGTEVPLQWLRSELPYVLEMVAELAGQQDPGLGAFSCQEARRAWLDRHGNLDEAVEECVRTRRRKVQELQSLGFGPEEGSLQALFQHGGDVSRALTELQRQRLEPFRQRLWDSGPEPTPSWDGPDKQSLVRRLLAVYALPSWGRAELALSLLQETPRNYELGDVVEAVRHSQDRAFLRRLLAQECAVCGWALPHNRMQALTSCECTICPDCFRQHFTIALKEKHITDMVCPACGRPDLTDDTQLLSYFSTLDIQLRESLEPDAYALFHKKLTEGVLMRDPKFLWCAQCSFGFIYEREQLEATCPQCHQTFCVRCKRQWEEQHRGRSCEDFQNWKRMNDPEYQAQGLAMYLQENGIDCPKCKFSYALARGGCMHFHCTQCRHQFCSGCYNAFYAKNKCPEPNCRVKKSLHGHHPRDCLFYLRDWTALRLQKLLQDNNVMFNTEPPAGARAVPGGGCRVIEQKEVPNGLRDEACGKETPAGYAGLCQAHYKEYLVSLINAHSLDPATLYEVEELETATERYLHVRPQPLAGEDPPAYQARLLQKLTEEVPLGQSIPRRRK

Target: TAP-tagged wild-type HOIP (UniProt Q96EP0)
Experiment: affinity purification with mass spectrometry; modified tandem affinity purification of HOIP-TAP from reconstituted HOIP-deficient K562 cells; nLC-MS/MS

binding: binds
B1: SHARPIN (protein, UniProt Q9H0F6 1-387)
chain: MAPPAGGAAAAASDLGSAAVLLAVHAAVRPLGAGPDAEAQLRRLQLSADPERPGRFRLELLGAGPGAVNLEWPLESVSYTIRGPTQHELQPPPGGPGTLSLHFLNPQEAQRWAVLVRGATVEGQNGSKSNSPPALGPEACPVSLPSPPEASTLKGPPPEADLPRSPGNLTEREELAGSLARAIAGGDEKGAAQVAAVLAQHRVALSVQLQEACFPPGPIRLQVTLEDAASAASAASSAHVALQVHPHCTVAALQEQVFSELGFPPAVQRWVIGRCLCVPERSLASYGVRQDGDPAFLYLLSAPREAPATGPSPQHPQKMDGELGRLFPPSLGLPPGPQPAASSLPSPLQPSWSCPSCTFINAPDRPGCEMCSTQRPCTWDPLAAAST

binding: binds
B2: SPATA2 (protein, UniProt Q9UM82 1-520)
chain: MGKPSSMDTKFKDDLFRKYVQFHESKVDTTTSRQRPGSDECLRVAASTLLSLHKVDPFYRFRLIQFYEVVESSLRSLSSSSLRALHGAFSMLETVGINLFLYPWKKEFRSIKTYTGPFVYYVKSTLLEEDIRAILSCMGYTPELGTAYKLRELVETLQVKMVSFELFLAKVECEQMLEIHSQVKDKGYSELDIVSERKSSAEDVRGCSDALRRRAEGREHLTASMSRVALQKSASERAAKDYYKPRVTKPSRSVDAYDSYWESRKPPLKASLSLRKEPVATDVGDDLKDEIIRPSPSLLTMASSPHGSPDVLPPASPSNGPALLRGTYFSTQDDVDLYTDSEPRATYRRQDALRPDVWLLRNDAHSLYHKRSPPAKESALSKCQSCGLSCSSSLCQRCDSLLTCPPASKPSAFPSKASTHDSLAHGASLREKYPGQTQGLDRLPHLHSKSKPSTTPTSRCGFCNRPGATNTCTQCSKVSCDACLSAYHYDPCYKKSELHKFMPNNQLNYKSTQLSHLVYR

Results are given in words; binding and its absence hold for the method and conditions named. Binding seen in cells or lysates may run through a third protein. A yes stands for co-enrichment or nearness to the bait. Other partners may have been found. One block for each binder: values may come before it.
